Source: patent US20120219795A1, “REMOVABLE WATER-DISPERSIBLE ACRYLIC PRESSURE-SENSITIVE ADHESIVE COMPOSITION AND PRESSURE-SENSITIVE ADHESIVE SHEET” (NITTO DENKO CORPORATION, priority 2011, published 2012)
Some entries share one result that the patent states for a list of compounds.

Assay: Solubility of crosslinking agent in water
Format: physicochemical
Details: 25° C.

Structure (SMILES): C1CC(CN(CC2CO2)CC2CO2)CC(CN(CC2CO2)CC2CO2)C1 (centres unmarked) [TETRAD-C, 1,3-bis(N,N-diglycidylaminomethyl)cyclohexane]
- Solubility in water: ≤ 2 parts by weight per 100 parts

Structure (SMILES): c1cc(CN(CC2CO2)CC2CO2)cc(CN(CC2CO2)CC2CO2)c1 (centres unmarked) [TETRAD-X, 1,3-bis(N,N-diglycidylaminomethyl)benzene]
- Solubility in water: ≤ 2 parts by weight per 100 parts
